# Some entries share one result that the patent states for a list of compounds. At least one compound was matched to its structure with a doubt left.
# Columns and labels:
# HeLa cells = details: read-out: IC50 toxicity
# A431 cells = type: cell-based; details: A431, text; read-out: IC50 toxicity
smiles,measurement,setting,value
CC[C@H](C)[C@H](C[C@H](O)CC(=O)OC1C(C)OC(OC(=O)[C@]23CCC(C)(C)CC2C2=CCC4[C@@]5(C)CC[C@H](OC6OC(C(=O)O)C(O)C(OC7OCC(O)C(O)C7O)C6OC6OC(CO)C(O)C(O)C6O)[C@@](C)(/C=N/NC(=O)CCCCCN6C(=O)C=CC6=O)C5CC[C@@]4(C)[C@]2(C)C[C@H]3O)C(OC2OC(C)C(OC3OCC(O)C(OC4OCC(O)(CO)C4O)C3O)C(O)C2O)C1O)OC(=O)C[C@@H](O)C[C@H](OC1OC(CO)C(O)C1O)[C@@H](C)CC (some centres unmarked) [QS21-Ald-EMCH],IC50,HeLa cells,> 100 µM
CC(=O)OC1C(C)OC(OC2C(C)OC(OC(=O)[C@]34CCC(C)(C)CC3C3=CCC5[C@@]6(C)CC[C@H](OC7OC(C(=O)NCCN8C(=O)C=CC8=O)C(O)C(OC8OCC(O)C(O)C8O)C7OC7OC(CO)C(O)C(O)C7O)[C@@](C)(C=O)C6CC[C@@]5(C)[C@]3(C)C[C@H]4O)C(OC3OC(C)C(OC4OCC(O)C(OC5OC(CO)C(O)C(O)C5O)C4O)C(O)C3O)C2O)C(O)C1OC1OCC(O)C(O)C1O (some centres unmarked) [SO1861-Glu-AEM],IC50,A431 cells,> 100 µM

# — patent US20230357310A1, “Saponin derivatives with improved therapeutic window” (priority 2019, published 2023)
